Earlier results on one molecule are cited in US20260373152A1, “CANCER THERAPY COMPRISING 3,5-DISUBSTITUTED BENZENE ALKYNYL COMPOUND AND IMMUNE CHECKPOINT INHIBITOR” (TAIHO PHARMACEUTICAL CO., LTD., priority 2023, published 2026).

Holding throughout (settings): PTL 2; futibatinib or a salt thereof
Series [1] has as its system FGFR.
The test system of series [2] is FGFR1.
Series [3] deals with FGFR3.
The test system of series [4] is FGFR4.

Take `C=CC(=O)N1CC[C@H](n2nc(C#Cc3cc(OC)cc(OC)c3)c3c(N)ncnc32)C1` [futibatinib, (S)-1-(3-(4-amino-3-((3,5-dimethoxyphenyl)ethynyl)-1H-pyrazolo[3,4-d]pyrimidin-1-yl)pyrrolidin-1-yl)prop-2-en-1-one]: in series [1], the FGFR inhibitory effect entry is “excellent FGFR inhibitory effect”. Moreover, the “inhibition of FGFR1 phosphorylation of tyrosine in the substrate peptide sequence” value in series [2] is “inhibits”. Besides, the “inhibition of FGFR3 phosphorylation of tyrosine in the substrate peptide sequence” value in series [3] is given as “inhibits”. Further, the “inhibition of FGFR4 phosphorylation of tyrosine in the substrate peptide sequence” value in series [4] is given as “inhibits”.
